# Laboratory results reported in the supplement of paper PMC5949888.
# Most values lie at the floor of the assay. Slopes are relative: functional sequences can read slightly below zero.
# Tested on: Saccharomyces cerevisiae PS128 hsf1 delta, HSF1(1-493) fusion
# Test: growth estimate (transactivation domain function in HSF1 fusion, heat-shock survival) (a.u. (slope of normalised read count over time)); higher = stronger growth at 37°C, i.e. more transactivation activity
# Details: library: random library
row,Substance,growth estimate
1,VGYSGYHLEFQGAFLQCPST,< -0.25
2,RPN,< -0.25
3,YAVMLDCK,< -0.25
4,EAAGGVTHGLGGRQGKSSP,< -0.25
5,YIN,< -0.25
6,CINRMLSRRVNFPSL,< -0.25
7,TNPRLAGK,< -0.25
8,EVKLGLIAPLACESFISWSQ,< -0.25
9,WLDAGPSTPRTGTVKVIIPQ,< -0.25
10,LYRLLFELQSPLPGVRCSQG,< -0.25
11,CGLALPAPKIG,< -0.25
12,VMPSIRSPR,< -0.25
13,YNSPSIPQVRVGARILRS,< -0.25
14,SEDYGRMRSIYVIKAVRGSR,< -0.25
15,TYSEPIGCFNWKRDGFLYFY,< -0.25
16,HEAFSERVHGY,< -0.25
17,RTGTSEYELHGYTVC,< -0.25
18,LINRSCRAAPTF,-0.245
19,VMRSVRDHRWIDRMDIIFHL,< -0.25
20,MLLCV,< -0.25
21,ILLFNKSVDIEHSVGIVERV,< -0.25
22,RTMTSLRFAKRMTLPDIVG,< -0.25
23,IGPESGKIKHTNPVLLPSLT,< -0.25

row,Substance,growth estimate
1,SEWVLSFKVV,< -0.25
2,RRCSGRRG,< -0.25
3,TQKASFYCRLPTWKREGQHG,< -0.25
4,GDFFTSLMVSCRSGSPSRGN,< -0.25
5,GPWLHGWRKSLVSEA,< -0.25
6,PISAFWYEKSANPFQVSNR,< -0.25
7,LFTKLGGAWAPLEHSYYALK,< -0.25
8,ASLYGLPDDADRVDANSCDA,< -0.25
9,LSHMNTGPGEPGQLGTLFVS,< -0.25
10,GGRYGRCGRSTGQPARRIQR,< -0.25
11,RLLGLQFWGFQWRKT,< -0.25
12,TSRQRGPGGLYGRLKSVHQR,< -0.25
13,RLVHTWRLLNSRFMLIIAVD,< -0.25
14,IIGVVNPWCLQQG,< -0.25
15,WELPSPVVTNVGTHPK,< -0.25
16,SLGHFQLTTGSSIPWVIDRL,< -0.25
17,TRVD,< -0.25
18,GSTWLKLSQIAGLYLRTRLM,< -0.25
19,PCF,< -0.25
20,RLQVGRLRRRCRVYMRLRPP,< -0.25
21,ASV,< -0.25
22,NKKSCSL,< -0.25
23,GYTLSPSESVI,< -0.25

# A run of entries taken from the entries so far, for reference:
row,Substance,growth estimate
14,IIGVVNPWCLQQG,< -0.25
15,WELPSPVVTNVGTHPK,< -0.25
16,SLGHFQLTTGSSIPWVIDRL,< -0.25
17,TRVD,< -0.25

# Looked up above:
# Entry of LSHMNTGPGEPGQLGTLFVS under growth estimate: < -0.25
# Entry of GYTLSPSESVI under growth estimate: < -0.25
# Entry of YNSPSIPQVRVGARILRS under growth estimate: < -0.25

# Next part.

row,Substance,growth estimate
1,ILKLRCSSILCVRYCDRFSG,< -0.25
2,RRDRTSYCCDDSVFKGGNHG,< -0.25
3,RREQLERRNEYSPMRSHSWI,< -0.25
4,SGNICSSHRSVSLWRIRIDR,< -0.25
5,MTERVVREV,< -0.25
6,LQMSYPSYAESTCLWTVAGH,< -0.25
7,PRFNGAAVCLRSECWLENEG,< -0.25
8,LNNGFAHVRTSPGVD,< -0.25
9,PAVF,< -0.25
10,YSQVCARLEIYRTSENLLER,< -0.25
11,ERDTLMVSRI,< -0.25
12,WTGMYSAPREGRALKMAE,< -0.25
13,YRLSNRVEFLGGVLHLPD,-0.219
14,IATGVNLHLSAGTAVLVLLS,< -0.25
15,GPPLEGEGGTSVWIGCSRA,< -0.25
16,IIGQVVSGVRTGYRVGS,< -0.25
17,HQAGWLITDFVNLCPRVDYG,< -0.25
18,LLVKLTGQVLGV,< -0.25
19,RTRTSRGRAWDLWPQCALGM,< -0.25
20,LSMTETCKNGRTL,< -0.25
21,AER,< -0.25
22,SSQCKGEPDSWGVWCVSKCT,< -0.25
23,VQGAWSFRSFATILIVSQLP,< -0.25

row,Substance,growth estimate
1,TAVVMTNLLFGGNEFSAVTS,< -0.25
2,CYIKRLHSLIGKYYLRAFSF,< -0.25
3,VAARRVVPAIVKGATTPLYS,< -0.25
4,GQGRCA,< -0.25
5,GGLFKSLVVKSKELLVFQII,< -0.25
6,FFIAEMSDVGGVVVTEAIRL,< -0.25
7,IRVGQRPQTGSADAANWQCS,< -0.25
8,LHEWGYYVFSGGFGSITRGR,< -0.25
9,PVLSILPSRVRVPKDEFSLN,< -0.25
10,SVRVALLRLSGRDILRRAEN,< -0.25
11,GERGRNGACSALPILAQRYG,< -0.25
12,SNTQSGSCK,< -0.25
13,CIFVGRWSITTNSWDTYDQA,< -0.25
14,VRYAMDGTLVARIAAGIVYQ,< -0.25
15,VKANKRYLAGLRYDIVVD,< -0.25
16,SGVDYLHWNLVPQSAHIWNW,< -0.25
17,HQNVVGMGSPPHSAFVRQIS,< -0.25
18,HGFWSKLCI,< -0.25
19,HGRVI,< -0.25
20,DCRRAALLLGNLRARTRVRR,< -0.25
21,MFNRTKTAALGTRDPGIRGL,< -0.25
22,GCHWGCTGRKV,< -0.25
23,PIFS,< -0.25

row,Substance,growth estimate
1,IIEPPS,-0.246
2,TVLKLRRQIPHCPANLHVRH,< -0.25
3,SNVGVYFRVEGDANSTVEIK,< -0.25
4,LVPSVEMS,< -0.25
5,WMWIACSCVRRVPLCRTMSA,< -0.25
6,IVSHSYVSESQLAVSTRTVL,< -0.25
7,MVSLNSVLCISGFRGGSRGH,< -0.25
8,LSVSIPWGRRQWARRASLLC,< -0.25
9,QNP,< -0.25
10,SRPPVSSFGI,0.229
11,RADDEEAR,< -0.25
12,IRIVSRMYAGHGTAACSRGR,< -0.25
13,MWIPPLPSESDRKDGRK,< -0.25
14,LCRGDAPAGRTLRSRLSGRE,< -0.25
15,TCDFPAVAEGENPIRGSR,< -0.25
16,AGKEDFLGLSSRNPVS,< -0.25
17,SHTLEGSWMPDTRGSLRSDL,< -0.25
18,LPGRTGPSTGNGGRCAGKNK,< -0.25
19,ISIMRAPRVRPTP,< -0.25
20,SRSNITYLTK,< -0.25
21,YGV,< -0.25
22,STNGEG,< -0.25
23,TWYDKGSWPRAVYARETLVR,< -0.25

row,Substance,growth estimate
1,VRGVSSCQVEESARAGVT,< -0.25
2,GQLIRVR,< -0.25
3,SRIPVVMILG,< -0.25
4,TVAA,< -0.25
5,ATFSARGSRINHLRRL,< -0.25
6,RETGDSSVRGVRTVSCKPTG,< -0.25
7,KRKVDR,< -0.25
8,VRHEIKAHSGGSATPLLEQV,< -0.25
9,LYFRHSVIRKIFNNSRRIGH,< -0.25
10,KAP,< -0.25
11,KRGPHCGRTHLGTVRI,-0.245
12,YGRRSVPEVQVAGT,< -0.25
13,RRAVERRGPSGVTPLWYTPG,< -0.25
14,TGKFPKWGLVPRRADSHSSF,< -0.25
15,QYCQWA,< -0.25
16,GIRHFGGTVYVRCMS,< -0.25
17,VRQPGIYS,< -0.25
18,SDIIA,< -0.25
19,RDFGDCLHLRPDVLALAPKG,< -0.25
20,GQCVGE,< -0.25
21,VALQDRYDNCTDRHSLT,< -0.25
22,LSGLSG,< -0.25
23,ATPM,< -0.25

row,Substance,growth estimate
1,EIFGIMNQCQFPSLKDGQMR,< -0.25
2,IQAQPGLP,< -0.25
3,LALGVLITEILEILILAGN,< -0.25
4,DGQDCVITARFPSALTLCV,< -0.25
5,MDSGEIGHVLQPLLLKVRDA,< -0.25
6,VSKPTLLVGYCCLTNYA,< -0.25
7,SCGEDLGGGD,< -0.25
8,IGKGAYINYRRPIPTTCSDC,< -0.25
9,KHIREL,< -0.25
10,TAKLHAGWSLFTVQVAAAAQ,< -0.25
11,LPFP,< -0.25
12,TVRFHGLL,< -0.25
13,RVTPVPSITFIRFG,< -0.25
14,VMKIQRNSSIATFSQVHGGA,< -0.25
15,VQYSQNLFHVDMVCVLGPHI,< -0.25
16,LPLGQRAK,< -0.25
17,APIILRRQASLVLSGAQVSS,< -0.25
18,EVGASKGSSRDRTINPYSFQ,< -0.25
